Assay results from article PMC11618752.
Results are given in words; binding and its absence hold for the method and conditions named. In cells and extracts the contact can be indirect. Some entries that bind do so weakly or less than the wild type. One block for each substance: values may come before it.

Amino acid sequences for entries named in this document (tags omitted).
UniProt Q9BRJ7: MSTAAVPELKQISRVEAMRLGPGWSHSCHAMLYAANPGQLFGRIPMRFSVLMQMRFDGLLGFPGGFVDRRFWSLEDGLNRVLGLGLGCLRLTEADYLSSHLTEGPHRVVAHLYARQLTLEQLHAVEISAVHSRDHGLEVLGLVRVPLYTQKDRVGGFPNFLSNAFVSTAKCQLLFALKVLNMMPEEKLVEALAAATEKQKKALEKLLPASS
UniProt Q12888: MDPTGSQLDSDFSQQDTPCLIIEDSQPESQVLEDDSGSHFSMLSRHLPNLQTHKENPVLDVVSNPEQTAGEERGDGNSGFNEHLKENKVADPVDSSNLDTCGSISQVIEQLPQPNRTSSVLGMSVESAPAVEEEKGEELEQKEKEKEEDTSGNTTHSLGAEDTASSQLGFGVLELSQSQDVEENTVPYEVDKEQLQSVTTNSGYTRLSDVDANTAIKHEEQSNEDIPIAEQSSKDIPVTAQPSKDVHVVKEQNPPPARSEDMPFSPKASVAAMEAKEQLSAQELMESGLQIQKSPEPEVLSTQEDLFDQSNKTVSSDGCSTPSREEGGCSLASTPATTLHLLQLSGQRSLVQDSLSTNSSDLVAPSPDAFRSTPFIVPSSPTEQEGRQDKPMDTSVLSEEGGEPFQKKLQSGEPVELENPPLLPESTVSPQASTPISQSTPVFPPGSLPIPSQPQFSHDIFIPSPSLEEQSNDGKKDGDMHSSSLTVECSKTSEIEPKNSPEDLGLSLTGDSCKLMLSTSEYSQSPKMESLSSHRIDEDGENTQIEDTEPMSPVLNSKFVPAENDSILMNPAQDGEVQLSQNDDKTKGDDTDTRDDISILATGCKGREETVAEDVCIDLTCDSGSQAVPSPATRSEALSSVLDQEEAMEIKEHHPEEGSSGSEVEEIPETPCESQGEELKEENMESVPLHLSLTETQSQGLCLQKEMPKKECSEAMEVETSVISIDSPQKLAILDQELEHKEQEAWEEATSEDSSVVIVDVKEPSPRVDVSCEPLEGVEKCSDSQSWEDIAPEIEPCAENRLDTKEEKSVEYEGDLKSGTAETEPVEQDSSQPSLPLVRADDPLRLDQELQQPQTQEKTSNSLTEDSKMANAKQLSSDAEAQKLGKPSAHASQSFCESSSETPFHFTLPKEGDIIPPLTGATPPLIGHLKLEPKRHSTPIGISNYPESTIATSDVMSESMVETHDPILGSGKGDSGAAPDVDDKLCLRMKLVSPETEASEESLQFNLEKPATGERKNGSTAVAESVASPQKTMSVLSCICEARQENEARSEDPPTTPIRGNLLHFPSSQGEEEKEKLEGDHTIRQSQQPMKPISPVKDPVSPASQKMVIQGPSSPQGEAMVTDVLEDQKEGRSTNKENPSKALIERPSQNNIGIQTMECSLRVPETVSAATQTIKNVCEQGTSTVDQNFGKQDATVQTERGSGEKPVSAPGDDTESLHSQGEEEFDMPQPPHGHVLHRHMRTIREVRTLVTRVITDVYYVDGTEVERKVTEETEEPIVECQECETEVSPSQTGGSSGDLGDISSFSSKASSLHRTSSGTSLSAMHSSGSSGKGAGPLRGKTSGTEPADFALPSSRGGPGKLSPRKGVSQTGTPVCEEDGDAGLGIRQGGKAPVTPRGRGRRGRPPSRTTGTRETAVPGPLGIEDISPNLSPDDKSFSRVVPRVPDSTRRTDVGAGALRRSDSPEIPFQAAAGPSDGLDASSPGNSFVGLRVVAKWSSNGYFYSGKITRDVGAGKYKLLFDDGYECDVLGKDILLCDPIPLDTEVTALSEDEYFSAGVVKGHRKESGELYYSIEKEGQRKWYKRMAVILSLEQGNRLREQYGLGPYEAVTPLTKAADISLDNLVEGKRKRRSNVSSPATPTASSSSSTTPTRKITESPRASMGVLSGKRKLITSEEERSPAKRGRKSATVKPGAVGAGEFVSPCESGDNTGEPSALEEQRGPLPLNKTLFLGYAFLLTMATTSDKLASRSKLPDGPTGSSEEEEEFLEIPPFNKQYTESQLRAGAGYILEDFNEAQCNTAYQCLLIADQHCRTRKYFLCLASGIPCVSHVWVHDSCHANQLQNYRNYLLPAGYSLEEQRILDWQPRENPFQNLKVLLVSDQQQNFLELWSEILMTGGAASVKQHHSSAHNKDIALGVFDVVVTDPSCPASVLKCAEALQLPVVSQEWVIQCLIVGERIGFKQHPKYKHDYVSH
UniProt O14980: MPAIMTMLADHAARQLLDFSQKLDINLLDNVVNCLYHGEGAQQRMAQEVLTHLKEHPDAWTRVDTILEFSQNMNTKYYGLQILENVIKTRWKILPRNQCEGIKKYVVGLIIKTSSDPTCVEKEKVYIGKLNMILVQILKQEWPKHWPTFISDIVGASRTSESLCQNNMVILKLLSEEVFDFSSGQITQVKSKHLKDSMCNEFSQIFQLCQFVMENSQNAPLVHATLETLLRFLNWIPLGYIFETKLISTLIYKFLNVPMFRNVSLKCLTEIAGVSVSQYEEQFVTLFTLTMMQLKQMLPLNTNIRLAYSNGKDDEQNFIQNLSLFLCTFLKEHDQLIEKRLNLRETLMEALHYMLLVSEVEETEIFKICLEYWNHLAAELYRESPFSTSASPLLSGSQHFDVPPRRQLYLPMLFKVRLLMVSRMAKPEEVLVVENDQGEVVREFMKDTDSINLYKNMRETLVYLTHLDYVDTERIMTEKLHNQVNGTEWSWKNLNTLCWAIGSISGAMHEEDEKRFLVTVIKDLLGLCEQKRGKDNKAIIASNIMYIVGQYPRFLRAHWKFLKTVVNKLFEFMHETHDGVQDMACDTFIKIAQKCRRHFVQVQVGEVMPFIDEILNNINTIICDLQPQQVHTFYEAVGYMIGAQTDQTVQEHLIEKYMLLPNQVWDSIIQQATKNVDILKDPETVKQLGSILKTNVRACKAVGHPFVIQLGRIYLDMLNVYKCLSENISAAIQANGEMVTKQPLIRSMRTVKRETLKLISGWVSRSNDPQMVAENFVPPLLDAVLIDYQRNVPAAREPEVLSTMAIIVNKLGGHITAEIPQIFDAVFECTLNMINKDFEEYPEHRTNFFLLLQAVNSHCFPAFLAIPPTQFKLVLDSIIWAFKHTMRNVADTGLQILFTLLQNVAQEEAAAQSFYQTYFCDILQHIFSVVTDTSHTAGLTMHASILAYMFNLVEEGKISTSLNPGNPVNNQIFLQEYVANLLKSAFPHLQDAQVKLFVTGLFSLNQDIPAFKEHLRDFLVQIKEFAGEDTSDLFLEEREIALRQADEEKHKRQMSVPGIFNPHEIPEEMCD

Legend:
[1] = biological target: Flag-tagged wild-type TIRR (UniProt Q9BRJ7); assay: co-IP; TIRR (WT or lysine-187 mutant) and 53BP1 before and after DNA damage; Supplementary Fig. 4f, legend not shown
[2] = biological target: Tudor interacting repair regulator (TIRR), endogenous (human (endogenous in PC-3 and U2OS)) (UniProt Q9BRJ7); assay: co-IP; endogenous proteins in whole-cell lysates of PC-3 (and U2OS) cells; IP buffer 50 mM Tris-HCl pH 7.4, 150 mM NaCl, 1% NP-40, 1% sodium deoxycholate; antibody-conjugated protein A/G beads, 4 °C overnight; cells with or without IR (8 Gy), DMSO or MG132 pretreatment, control or DTX3L knockout
[3] = biological target: Tudor interacting repair regulator (TIRR), endogenous (human (endogenous in PC-3 and U2OS)) (UniProt Q9BRJ7); assay: condition: only cells pretreated with the E1 inhibitor MLN4924; co-IP; endogenous TIRR and XPO1 in whole-cell lysates of PC-3 and U2OS cells pretreated with MLN4924 and exposed to IR (8 Gy)
[4] = biological target: Flag-tagged wild-type TIRR (UniProt Q9BRJ7); assay: co-IP; whole-cell lysates of 293T cells transfected with HA-XPO1 and Flag-TIRR-WT or mutants; IR (4 or 8 Gy); HA-/Flag-conjugated agarose, IP buffer, 4 °C overnight
[5] = biological target: Flag-tagged wild-type TIRR (UniProt Q9BRJ7); assay: co-IP; WT and mutant (I521A/L525A/F561A/F572A) XPO1 with TIRR; Supplementary Fig. 2b, legend not shown

Substance: 53BP1 (from UniProt Q12888 1-1972)
binding [1]: binds

binding [2]: binds
binding [3]: no binding
Substance: Exportin-1 (XPO1), endogenous (from UniProt O14980 1-1071)

binding [4]: binds
binding [5]: binds
Substance: HA-tagged XPO1 (from UniProt O14980 1-1071)
